Melanoma cell counts after drug treatment

Drug key:
cediranib: COc1cc2c(Oc3ccc4[nH]c(C)cc4c3F)ncnc2cc1OCCCN1CCCC1 at 0.4 µM
docetaxel: CC(=O)O[C@@]12CO[C@@H]1C[C@H](O)[C@@]1(C)C(=O)[C@H](O)C3=C(C)[C@@H](OC(=O)[C@H](O)[C@@H](NC(=O)OC(C)(C)C)c4ccccc4)C[C@@](O)([C@@H](OC(=O)c4ccccc4)[C@H]21)C3(C)C at 0.0001 µM
XAV939: Oc1nc(-c2ccc(C(F)(F)F)cc2)nc2c1CSCC2 at 2 µM
VX-702: NC(=O)c1ccc(N(C(N)=O)c2c(F)cccc2F)nc1-c1ccc(F)cc1F at 0.4 µM
OSU-03012: NCC(=O)Nc1ccc(-n2nc(C(F)(F)F)cc2-c2ccc3c(ccc4ccccc43)c2)cc1 at 1 µM
LFM-A13: C/C(O)=C(\C#N)C(=O)Nc1cc(Br)ccc1Br at 2 µM
dorsomorphin: c1cc(-c2cnn3cc(-c4ccc(OCCN5CCCCC5)cc4)cnc23)ccn1 at 0.4 µM
cisplatin: N.N.[Cl][Pt][Cl] at 1.6 µM
stibogluconate: O=C(O)[C@@H]1[O][Sb](=[O])([O][Sb]2(=[O])[O][C@H]([C@H](O)CO)[C@H](O)[C@H](C(=O)O)[O]2)[O][C@H]([C@H](O)CO)[C@@H]1O (stereo partly drawn) at 2 µM
erlotinib: C#Cc1cccc(Nc2ncnc3cc(OCCOC)c(OCCOC)cc23)c1 at 0.8 µM
ruxolitinib: N#CC[C@H](C1CCCC1)n1cc(-c2ncnc3[nH]ccc23)cn1 at 1 µM
FK866: O=C(/C=C/c1cccnc1)NCCCCC1CCN(C(=O)c2ccccc2)CC1 at 0.01 µM
fingolimod: CCCCCCCCc1ccc(CCC(N)(CO)CO)cc1 at 2 µM
midostaurin: CO[C@@H]1[C@H](N(C)C(=O)c2ccccc2)C[C@H]2O[C@]1(C)n1c3ccccc3c3c4c(c5c6ccccc6n2c5c31)C(=O)NC4 at 0.08 µM
lapatinib: CS(=O)(=O)CCNCc1ccc(-c2ccc3ncnc(Nc4ccc(OCc5cccc(F)c5)c(Cl)c4)c3c2)o1 at 0.8 µM
BMS-536924: Cc1cc(N2CCOCC2)cc2[nH]c(-c3c(NC[C@@H](O)c4cccc(Cl)c4)cc[nH]c3=O)nc12 at 0.2 µM
veliparib: C[C@]1(c2nc3c(C(N)=O)cccc3[nH]2)CCCN1 at 1.4 µM
AZD7762: NC(=O)Nc1cc(-c2cccc(F)c2)sc1C(=O)N[C@H]1CCCNC1 at 0.02 µM
nilotinib: Cc1cn(-c2cc(NC(=O)c3ccc(C)c(Nc4nccc(-c5cccnc5)n4)c3)cc(C(F)(F)F)c2)cn1 at 0.2 µM
embelin: CCCCCCCCCCCC1=C(O)C(=O)C=C(O)C1=O at 1.2 µM

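Human melanoma cell lines in 1,536-well plates were treated with two drugs together for 72 h, then fixed, stained and imaged. The read-out is cell count (nuclei) in % of the DMSO control; lower values mean stronger growth inhibition or killing. Concentrations were fixed for each drug; these are the lower of two levels, a fifth of the higher. The file gives one value for each pair and line, without errors, so small differences may be noise.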
An unselected part of the screen is shown.
An entry leaves out what has no value listed here.
A dash means that no value is listed here.

Pair	COLO 829	A375	G-361	IPC-298	IST-MEL1	COLO 800	COLO 792	A2058	A101D	LOX IMVI	MEL-HO	501mel	C32	LB2518-MEL
nilotinib + ruxolitinib	-	97.3	-	-	-	-	-	93.4	109	-	-	-	-	-
docetaxel + ruxolitinib	-	34.0	-	-	-	-	-	16.7	78.8	-	-	-	105	-
nilotinib + cisplatin	66.6	-	93.1	96.4	95.3	83.8	88.7	-	-	75.8	109	-	-	97.6
embelin + erlotinib	95.8	98.2	108	95.8	106	82.5	91.4	91.1	104	117	90.0	111	90.3	101
dorsomorphin + docetaxel	-	-	-	-	-	-	36.1	-	-	-	-	-	-	-
VX-702 + midostaurin	-	-	-	-	-	-	97.7	-	-	-	-	-	-	-
fingolimod + cediranib	-	-	-	-	-	-	-	-	-	-	-	-	123	-
dorsomorphin + embelin	-	83.5	-	-	-	-	-	114	107	-	-	-	88.8	-
VX-702 + AZD7762	-	-	-	-	-	-	86.8	-	-	-	-	-	-	-
LFM-A13 + erlotinib	-	-	-	-	-	-	76.8	-	-	-	-	-	-	-
midostaurin + fingolimod	-	-	-	-	-	-	-	-	-	-	-	-	96.9	-
stibogluconate + lapatinib	95.9	-	92.7	96.4	110	82.1	103	-	-	87.3	100	-	-	103
midostaurin + XAV939	90.4	-	79.2	97.4	101	108	92.3	-	-	78.9	70.1	-	-	95.7
AZD7762 + FK866	-	55.6	-	-	-	-	-	123	85.4	-	-	-	92.5	-
BMS-536924 + VX-702	-	-	-	-	-	-	87.9	-	-	-	-	-	-	-
ruxolitinib + FK866	-	-	-	-	-	-	-	81.1	-	-	-	-	108	-
docetaxel + lapatinib	-	-	-	-	-	-	25.4	-	-	-	-	-	-	-
lapatinib + AZD7762	105	46.2	107	106	106	101	62.9	120	73.1	116	89.8	-	94.5	123
VX-702 + OSU-03012	-	-	-	-	-	-	-	-	-	-	-	-	102	-
LFM-A13 + veliparib	-	-	-	-	-	-	97.8	-	-	-	-	-	-	-

The last 2 entries again:

{"pair": "VX-702 + OSU-03012", "C32": 102}
{"pair": "LFM-A13 + veliparib", "COLO 792": 97.8}

From a melanoma drug combination screen (doi:10.1371/journal.pone.0140310); values rounded.